Patent publication US20080182886A1, “Fungicidal 5-Hydroxypyrazolines, Processes for their Preparation and Comprising Them” (BASF Aktiengesellschaft, priority 2005, published 2008)
Some entries share one result that the patent states for a list of compounds.

System: Puccinia recondita
Test: Curative activity against brown rust of wheat caused by Puccinia recondita
Type: in vivo
Conditions: potted wheat seedlings cultivar Kanzler, curative spray 250 ppm active compound one day after inoculation, assessed after 7 days; untreated plants 90% infected

With `CCCCC1(O)CC(C)=NN1C(=O)c1ccccc1` (stereo not shown) [I-1, (5-butyl-5-hydroxy-3-methyl-4,5-dihydropyrazol-1-yl)phenyl-methanone] the infection was “not more than 30%”.
